Laboratory results taken from publication PMC5522200.
No constants are given. Whether binding was seen depends on the method and setting. In cells and extracts the contact can be indirect. Some entries that bind do so weakly or less than the wild type. For part of these data: Sequences can lack the tags named with a protein. Values belong to the binder of their own block, whether it stands above or below them.

Key:
[1] = target: T1, iASPP, endogenous (human (endogenous in K562 and Kasumi-1)) (UniProt Q8WUF5); experiment: co-IP; endogenous proteins; K562 and Kasumi-1 lysates (20mM Tris PH7.5, 150mM NaCl, 1% Triton X-100) immunoprecipitated with anti-iASPP or control anti-IgG antibody overnight at 4°C, protein A/G-Sepharose; blotted with anti-FHL2
T1 sequence: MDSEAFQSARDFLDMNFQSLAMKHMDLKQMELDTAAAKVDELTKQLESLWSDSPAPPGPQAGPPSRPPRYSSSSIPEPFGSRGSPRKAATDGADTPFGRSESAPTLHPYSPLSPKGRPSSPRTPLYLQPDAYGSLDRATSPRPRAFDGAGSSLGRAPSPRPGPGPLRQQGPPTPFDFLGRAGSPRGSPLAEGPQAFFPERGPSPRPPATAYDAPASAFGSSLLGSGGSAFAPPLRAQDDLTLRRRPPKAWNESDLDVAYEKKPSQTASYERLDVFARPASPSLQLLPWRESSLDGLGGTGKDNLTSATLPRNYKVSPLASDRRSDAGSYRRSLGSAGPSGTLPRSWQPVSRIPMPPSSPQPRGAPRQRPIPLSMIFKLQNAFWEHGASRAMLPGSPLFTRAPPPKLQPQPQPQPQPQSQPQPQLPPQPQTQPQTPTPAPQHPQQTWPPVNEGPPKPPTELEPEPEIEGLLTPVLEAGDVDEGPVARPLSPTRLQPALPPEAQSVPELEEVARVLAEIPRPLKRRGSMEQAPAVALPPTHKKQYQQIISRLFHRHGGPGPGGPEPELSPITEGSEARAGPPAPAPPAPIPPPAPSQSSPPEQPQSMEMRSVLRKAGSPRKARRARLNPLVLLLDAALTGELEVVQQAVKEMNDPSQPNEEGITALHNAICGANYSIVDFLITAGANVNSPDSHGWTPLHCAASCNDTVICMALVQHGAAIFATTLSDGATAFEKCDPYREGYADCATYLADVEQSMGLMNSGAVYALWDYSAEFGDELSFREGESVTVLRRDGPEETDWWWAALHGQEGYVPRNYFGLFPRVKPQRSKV

Flag-iASPP (human) = target: T2, Flag-iASPP (human) (UniProt Q8WUF5); experiment: co-IP; Flag-iASPP and Myc-FHL2 or truncation mutants co-transfected into HEK293T, 48 hours; lysates immunoprecipitated with anti-Flag or anti-IgG antibodies; blotted with anti-Flag or anti-Myc
T2 sequence: T1 sequence

binding [1]: binds
B1: FHL2, endogenous (protein, UniProt Q14192 1-279)
chain: MTERFDCHHCNESLFGKKYILREESPYCVVCFETLFANTCEECGKPIGCDCKDLSYKDRHWHEACFHCSQCRNSLVDKPFAAKEDQLLCTDCYSNEYSSKCQECKKTIMPGTRKMEYKGSSWHETCFICHRCQQPIGTKSFIPKDNQNFCVPCYEKQHAMQCVQCKKPITTGGVTYREQPWHKECFVCTACRKQLSGQRFTARDDFAYCLNCFCDLYAKKCAGCTNPISGLGGTKYISFEERQWHNDCFNCKKCSLSLVGRGFLTERDDILCPDCGKDI

binding (Flag-iASPP (human)): binds
B2: Myc-FHL2 (protein, UniProt Q14192 1-279)
chain: B1 chain

binding (Flag-iASPP (human)): binds
B3: Myc-L1/2-3 (domain or fragment, UniProt Q14192 1-220)
chain: MTERFDCHHCNESLFGKKYILREESPYCVVCFETLFANTCEECGKPIGCDCKDLSYKDRHWHEACFHCSQCRNSLVDKPFAAKEDQLLCTDCYSNEYSSKCQECKKTIMPGTRKMEYKGSSWHETCFICHRCQQPIGTKSFIPKDNQNFCVPCYEKQHAMQCVQCKKPITTGGVTYREQPWHKECFVCTACRKQLSGQRFTARDDFAYCLNCFCDLYAKK
